Test results: article PMC5630695
These are yes or no findings as the source states them, for the method shown. Some entries that bind do so weakly or less than the wild type.

The chains behind the UniProt entries cited, without tags or fusion partners. Residues count along the entry.
UniProt P25025, residues 1-43: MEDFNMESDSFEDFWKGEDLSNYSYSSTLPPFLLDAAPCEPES

T1: CXCL7 WT (neutrophil-activating peptide 2) (UniProt P02775)
T1 sequence: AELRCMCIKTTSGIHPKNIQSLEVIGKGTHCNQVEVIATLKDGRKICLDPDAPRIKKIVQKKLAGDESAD


Experiments:
[1] = target: T1, CXCL7 WT (neutrophil-activating peptide 2); assay: NMR titration; 1H-15N HSQC; 320 uM CXCR2 N-domain titrated into 77 uM WT CXCL7, 50 mM phosphate pH 6.0, 35 C; final molar ratio CXCL7:N-domain 1:3.5; monomer and dimer peaks tracked together; both purified
[2] = target: T1, CXCL7 WT (neutrophil-activating peptide 2); assay: condition: only CXCL7 bound to heparin dp26; N-domain peptide up to a 1:7 M ratio; NMR titration; 1H-15N HSQC; CXCR2 N-domain peptide titrated into the CXCL7:heparin dp26 complex up to a 1:7 molar ratio; both purified
[3] = target: T1, CXCL7 WT (neutrophil-activating peptide 2); assay: 1H-15N HSQC NMR (monomer and dimer peaks); WT CXCL7 at 77-120 uM, 50 mM phosphate pH 6.0, 35 C; monomer to dimer; free and on titration with heparin dp26 (up to 1:4), which shifts the population to the dimer; both purified

binding [1] | binding [2] | binding [3] | Molecule
binds | no binding |  | recombinant CXCR2 N-terminal domain (N-domain) (residues 1-43) peptide (from UniProt P25025 1-43) (domain or fragment)
 |  | binds weakly | CXCL7 WT (neutrophil-activating peptide 2) (ligand, UniProt P02775 59-128) AELRCMCIKTTSGIHPKNIQSLEVIGKGTHCNQVEVIATLKDGRKICLDPDAPRIKKIVQKKLAGDESAD
